Data as given in PubChem BioAssay AID1259424 (University of Nebraska Medical Center, 2018)
In all, the deposit lists about 14,000 reagents; below is a random part of them. 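Higher correlation or smaller distance means closer resemblance to KSR1 loss; control wells, including KSR1 knockdowns, recur on many plates.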 Some reagents were tested in more than one well and are listed for each. Further read-outs or replicates are left out here. No sequences are given here. The record does not give: the time to read-out.

Purpose: 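Rank knockdowns across the genome by resemblance to the KSR1 depletion profile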 (primary screen)
Cells: human HCT116 colon cancer cells
Reagents: siRNA pool against human genes, 50 nM
Measured: 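Six signature mRNAs by branched-DNA multiplex assay, scaled to two housekeeping genes and non-targeting median, log2; matched to mean KSR1 knockdown profile by Pearson correlation and euclidean distance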
Reading the numbers: mean correlation with KSR1 profile and KSR1 correlation: higher = expression change more like KSR1 knockdown; mean distance from KSR1 profile: higher = expression change less like KSR1 knockdown

Gene	PubChem SID	mean correlation with KSR1 profile	mean distance from KSR1 profile	KSR1 correlation, replicate 1
CSAG2 (GeneID 102723547)	SID363995856	0.0368	1.7	0.0549
NFE2L1 (GeneID 4779)	SID363994337	-0.441	3.37	-0.445
SOX3 (GeneID 6658)	SID363996528	-0.00863	3.56	-0.00374
ABHD16A (GeneID 7920)	SID364002053	-0.241	2.48	-0.237
ASMTL (GeneID 8623)	SID363995195	-0.405	2.54	-0.369
PHF23 (GeneID 79142)	SID364002773	-0.707	1.51	-0.811
SEMA4A (GeneID 64218)	SID364002421	-0.535	1.93	-0.273
HNRNPA0 (GeneID 10949)	SID363997571	-0.0525	1.69	0.0216
PTN (GeneID 5764)	SID363993981	-0.186	2.78	-0.199
LTA (GeneID 4049)	SID363991913	0.268	3.09	0.0131
LHX4 (GeneID 89884)	SID364004362	0.103	1.43	0.412
NDST3 (GeneID 9348)	SID363995740	-0.358	2.68	-0.469
SHFL (GeneID 55337)	SID364001024	-0.655	1.52	-0.154
FOXS1 (GeneID 2307)	SID363995128	0.473	3.37	0.578
ZC3H15 (GeneID 55854)	SID364001099	-0.29	2.52	-0.505
RABGAP1 (GeneID 23637)	SID363998130	-0.286	1.47	0.0957
RABGAP1 (GeneID 23637)	SID363998130	0.418	1.52	0.538
COA3 (GeneID 28958)	SID363998554	-0.135	3.6	-0.158
HARS1 (GeneID 3035)	SID363993315	0.502	0.827	0.272
ZIC4 (GeneID 84107)	SID364003808	0.121	2.13	-0.235
C7orf25 (GeneID 79020)	SID364002714	-0.315	2.79	-0.315
EIF2B4 (GeneID 8890)	SID363999615	0.265	3.29	0.432
CPLANE2 (GeneID 79363)	SID364003484	0.166	2.13	0.187
PIAS2 (GeneID 9063)	SID363995635	0.589	2.38	0.459
NDUFS6 (GeneID 4726)	SID363995524	0.16	1.75	0.24
EPS15L1 (GeneID 58513)	SID364002117	-0.128	2.08	-0.0273
TNS2 (GeneID 23371)	SID363999413	-0.519	2.15	-0.393
DOC2B (GeneID 8447)	SID363994665	-0.52	1.36	-0.695
LDAH (GeneID 60526)	SID364002218	-0.329	2.05	-0.532
WFDC1 (GeneID 58189)	SID364002084	0.654	0.929	0.659
PRR4 (GeneID 11272)	SID363997937	0.302	0.894	0.354
RGL3 (GeneID 57139)	SID364005359	-0.0882	1.21	-0.00598
RTL10 (GeneID 79680)	SID364002926	-0.279	3.43	-0.228
OR10A5 (GeneID 144124)	SID364004907	0.436	1.94	0.407
DENND2B (GeneID 6764)	SID363996324	0.82	1.36	0.973
TP63 (GeneID 8626)	SID363994791	0.216	2.03	0.118
POLD2 (GeneID 5425)	SID363997054	-0.184	2.16	0.053
ETHE1 (GeneID 23474)	SID363998729	-0.318	1.42	-0.491
ATP6V1B1 (GeneID 525)	SID363992914	0.129	2.47	0.186
KRT83 (GeneID 3889)	SID363993480	-0.133	1.61	-0.382
USP53 (GeneID 54532)	SID364005241	-0.402	1.57	-0.411
SLAMF1 (GeneID 6504)	SID363994186	0.0112	1.75	0.0902
BIN1 (GeneID 274)	SID363995298	0.0781	2.35	0.139
NOTCH4 (GeneID 4855)	SID363995528	-0.618	2.68	-0.513
SLC26A3 (GeneID 1811)	SID363991447	-0.141	1.83	-0.356
ARF3 (GeneID 377)	SID363992883	-0.254	3.89	-0.292
DDX59 (GeneID 83479)	SID364003594	0.456	2.07	0.309
NUTM2F (GeneID 54754)	SID364005050	-0.467	3.11	-0.411
COL4A4 (GeneID 1286)	SID363991429	0.242	1.36	0.259
MIEF1 (GeneID 54471)	SID364001326	0.111	1.38	0.0656
SETD1B (GeneID 23067)	SID364005099	-0.448	2.45	-0.108
NSUN2 (GeneID 54888)	SID364000501	-0.446	2.41	-0.272
SLC4A4 (GeneID 8671)	SID363994826	0.0969	1.21	0.000964
MICALL1 (GeneID 85377)	SID364004368	-0.0306	2.19	0.0521
FLYWCH1 (GeneID 84256)	SID364003883	0.712	1.72	0.7
SAP30BP (GeneID 29115)	SID363998384	-0.404	2.63	-0.132
RAMP3 (GeneID 10268)	SID363996730	-0.111	2.76	-0.0897
MRPS15 (GeneID 64960)	SID364003569	-0.143	2.37	-0.0831
GIMAP5 (GeneID 55340)	SID364001027	0.396	1.83	0.36
OSTM1 (GeneID 28962)	SID363998558	-0.353	3.59	-0.454
BCL6B (GeneID 255877)	SID364004947	0.0253	2.46	0.259
STK4 (GeneID 6789)	SID363997104	0.233	1.78	0.432
EBAG9 (GeneID 9166)	SID363995215	-0.386	1.32	-0.353

Already shown: entries from further up.
Gene	PubChem SID	mean correlation with KSR1 profile	mean distance from KSR1 profile	KSR1 correlation, replicate 1
ETHE1 (GeneID 23474)	SID363998729	-0.318	1.42	-0.491
ATP6V1B1 (GeneID 525)	SID363992914	0.129	2.47	0.186
KRT83 (GeneID 3889)	SID363993480	-0.133	1.61	-0.382
USP53 (GeneID 54532)	SID364005241	-0.402	1.57	-0.411
SLAMF1 (GeneID 6504)	SID363994186	0.0112	1.75	0.0902
BIN1 (GeneID 274)	SID363995298	0.0781	2.35	0.139
NOTCH4 (GeneID 4855)	SID363995528	-0.618	2.68	-0.513
SLC26A3 (GeneID 1811)	SID363991447	-0.141	1.83	-0.356
ARF3 (GeneID 377)	SID363992883	-0.254	3.89	-0.292
